Taken from: PubChem BioAssay AID1259283 (Sanger Institute, 2017)

- Assay: 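Kinases needed for HT115 growth and partners for drug synergy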 (primary screen)
- Cells: HT115 colorectal cancer cells
- Knock-down reagent: siRNA pool against human genes
- Treatment: anchor drug given one day after siRNA: BYL719 at 1 µM, cetuximab at 5 µg/ml, trametinib at 10 nM, or DMSO vehicle alone
- Read-out: 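Viability normalised to non-targeting pool #2 wells and averaged over replicates, robust z-score against control wells, and a synergy score for each of three drugs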
- Reading the numbers: robust z-score, knock-down alone: higher = more viable cells after knock-down; viability, DMSO vs non-targeting control: higher = more viable cells
- Units: viability, DMSO vs non-targeting control in fraction of control
- Active means: 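Essential gene: robust z-score less than -3 with no drug added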
- Meaning of the calls: active = essential (z below -3, no drug); inactive = no change without drug
Shown is an unselected part of 794 reagents. Of all reagents, 14 (1.8%) are marked active. 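Calls reflect only viability loss without drug; drug synergy does not enter the call.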 No viability above 1 is reported: the scale is capped. Not all columns of the deposit are shown. Not stated in the record: the amount of reagent, the time to read-out.

Silencing of STK24 (serine/threonine kinase 24) resulted in: robust z-score, knock-down alone 0.375; viability, DMSO vs non-targeting control 0.962; inactive.
SPHK2 (sphingosine kinase 2) gave robust z-score, knock-down alone 0.135; viability, DMSO vs non-targeting control 0.94; inactive.
Against MAP3K3 (mitogen-activated protein kinase kinase kinase 3), the values are robust z-score, knock-down alone -0.334; viability, DMSO vs non-targeting control 0.896; inactive.
With knock-down of PKIA (cAMP-dependent protein kinase inhibitor alpha) the results were robust z-score, knock-down alone 0.068; viability, DMSO vs non-targeting control 0.933; inactive.
IKBKE (inhibitor of nuclear factor kappa B kinase subunit epsilon) scored robust z-score, knock-down alone -1.68; viability, DMSO vs non-targeting control 0.772; inactive.
With knock-down of ULK3 (unc-51 like kinase 3) the results were robust z-score, knock-down alone 0.789; viability, DMSO vs non-targeting control 1; inactive.
For BMPR1A (bone morphogenetic protein receptor type 1A), the entry reads robust z-score, knock-down alone 0.789; viability, DMSO vs non-targeting control 1; inactive.
Silencing of CSNK1A1L (casein kinase 1 alpha 1 like) resulted in: robust z-score, knock-down alone 0.789; viability, DMSO vs non-targeting control 1; inactive.
